Data as given in US6801859B1, “Methods of characterizing drug activities using consensus profiles” (Rosetta Inpharmatics LLC, priority 1998, dated 2004).
At least one structure is not confirmed: it was looked up by name or label, or the drawing left a doubt.

Tests used:
calcineurin protein = assay: Transcript response profiles of S. cerevisiae to immunosuppressant drug perturbations, grouped into genesets; type: cell-based; conditions: Rows 15, 18, 28, 29, 30, 32, 34 of FIG. 3; 1 or 50 μg/ml; wild-type and deletion strains
wild type yeast cells = conditions: doxycycline 10 micrograms/ml; cited from earlier work

| SMILES | common geneset responding in the perturbation response profiles (visual inspection of FIG. 3) (calcineurin protein) | effect on growth rate (wild type yeast cells) |
| --- | --- | --- |
| C=CC[C@@H]1/C=C(\C)C[C@H](C)C[C@H](OC)[C@H]2O[C@@](O)(C(=O)C(=O)N3CCCC[C@H]3C(=O)O[C@H](/C(C)=C/[C@@H]3CC[C@@H](O)[C@H](OC)C3)[C@H](C)[C@@H](O)CC1=O)[C@H](C)C[C@@H]2OC [FK506] | geneset no. 5 |  |
| C[C@H]1c2cccc(O)c2C(=O)C2=C(O)[C@]3(O)C(=O)C(C(N)=O)=C(O)[C@@H](N(C)C)[C@@H]3[C@@H](O)[C@@H]21 [doxycycline] |  | no significant effect |
